Laboratory results published in paper PMC12588883.
No constants are given. Whether binding was seen depends on the method and setting. Binding seen in cells or lysates may run through a third protein. Some binding calls cover weakened binding; strength is not graded here.

Legend:
[1] = biological target: TAR DNA-binding protein of 43 kD (TDP-43), endogenous (human (endogenous in SH-SY5Y and U2OS)) (UniProt Q13148); assay: co-IP; endogenous proteins; antibody to NSUN1 (rabbit, N-terminal) or to TDP-43 (mouse) or normal IgG on protein G Dynabeads, U2OS or SH-SY5Y lysate in Pierce IP lysis buffer, 4°C, 18 h; immunoblot for NSUN1 and TDP-43
[2] = biological target: Human TDP-43-WT-YFP (human) (UniProt Q13148); assay: co-IP; TDP-43-YFP variants transfected into U2OS or SH-SY5Y cells (21 h), precipitated with GFP antibody on protein G Dynabeads from lysate in Pierce lysis buffer; immunoblot for endogenous NSUN1; U2OS cells also after 1 μg/ml actinomycin D
[3] = biological target: Human TDP-43-Q331K-YFP (human) (UniProt Q13148); assay: as above

binding [1]: binds
binding [2]: binds
binding [3]: binds
B1: NSUN1 isoform 3, endogenous (protein, UniProt P46087-4 1-845)
chain: MGRKLDPTKEKRGPGRKARKQKGAETELVRFLPAVSDENSKRLSSRARKRAAKRRLGSVEAPKTNKSPEAKPLPGKLPKGISAGAVQTAGKKGPQSLFNAPRGKKRPAPGSDEEEEEEDSEEDGMVNHGDLWGSEDDADTVDDYGADSNSEDEEEGEAAGVQWLGLGSLQPPPPGFKQFSCLSFPSSWDLQLLPIERAARKQKAREAAAGIQWSEEETEDEEEEKEVTPESGPPKVEEADGGLQINVDEEPFVLPPAGEMEQDAQAPDLQRVHKRIQDIVGILRDFGAQREEGRSRSEYLNRLKKDLAIYYSYGDFLLGKLMDLFPLSELVEFLEANEVPRPVTLRTNTLKTRRRDLAQALINRGVNLDPLGKWSKTGLVVYDSSVPIGATPEYLAGHYMLQGASSMLPVMALAPQEHERILDMCCAPGGKTSYMAQLMKNTGVILANDANAERLKSVVGNLHRLGVTNTIISHYDGRQFPKVVGGFDRVLLDAPCSGTGVISKDPAVKTNKDEKDILRCAHLQKELLLSAIDSVNATSKTGGYLVYCTCSITVEENEWVVDYALKKRNVRLVPTGLDFGQEGFTRFRERRFHPSLRSTRRFYPHTHNMDGFFIAKFKKFSNSIPQSQTGNSETATPTNVDLPQVIPKSENSSQPAKKAKGAAKTKQQLQKQQHPKKASFQKLNGISKGADSELSTVPSVTKTQASSSFQDSSQPAGKAEGIREPKVTGKLKQRSPKLQSSKKVAFLRQNAPPKGTDTQTPAVLSPSKTQATLKPKDHHQPLGRAKGVEKQQLPEQPFEKAAFQKQNDTPKGPQPPTVSPIRSSRPPPAKRKKSQSRGNSQLLLS
